This is an account of results in patent publication US20120220540A1, “SYNBODIES TO AKT1” (ARIZONA BOARD OF REGENTS FOR AND ON BEHALF OF ARIZONA STATE …, priority 2009, published 2012).

Protein sequences, listed by entry. Tags and fused reporters are not part of them. Lines headed by an entry give the natural chain unless they say otherwise; changes in a name come on top.
UniProt P31749: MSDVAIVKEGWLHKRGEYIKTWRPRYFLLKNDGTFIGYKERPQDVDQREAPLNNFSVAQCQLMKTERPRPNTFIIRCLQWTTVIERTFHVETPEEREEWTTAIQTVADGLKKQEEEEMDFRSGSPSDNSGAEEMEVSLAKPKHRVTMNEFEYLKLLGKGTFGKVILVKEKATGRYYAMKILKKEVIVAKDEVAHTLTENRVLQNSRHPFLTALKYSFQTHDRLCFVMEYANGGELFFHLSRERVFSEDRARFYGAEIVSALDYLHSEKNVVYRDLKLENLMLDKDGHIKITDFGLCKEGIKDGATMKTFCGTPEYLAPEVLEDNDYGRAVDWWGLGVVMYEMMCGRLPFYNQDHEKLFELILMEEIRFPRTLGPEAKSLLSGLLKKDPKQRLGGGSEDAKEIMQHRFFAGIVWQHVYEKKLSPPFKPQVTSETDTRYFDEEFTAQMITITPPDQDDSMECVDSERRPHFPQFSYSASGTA

These are yes or no findings as the source states them, for the method shown. Some binding calls cover weakened binding; strength is not graded here.

Experiment [1] deals with T1, AKT1 (human, UniProt P31749 1-480).
T1 construct: also called human AKT1; AKT1_HUMAN
Briefly: immunofluorescence microscopy of fixed, permeabilised TE671 cells stained with 50 nM labeled synbody.

Experiment [2] concerns the target T1, AKT1. In words: immunofluorescence microscopy of fixed, permeabilised TE671 cells, 50 nM labelled synbody.

B1: 26-23-(PEG2) Alexafluor 488 (designed binder)
chain 1: AHKVVPQRQIRHAYNRYGSG
chain 2: FRGWAHIFFGPHVIYRGGSG
modifications: PEG2 and Alexafluor 488 label; point of attachment not stated
For the molecule B1, the binding result in the experiment with AKT1 [1] and with AKT1 [2] was “binds” in each case.
